Measured values reported in PMC7129064.
These are yes or no findings as the source states them, for the method shown. In cells and extracts the contact can be indirect. Here binding means that the protein was enriched with, or labelled near, the bait; the list need not be complete.

B1: CEP131 (protein, UniProt Q9UPN4 1-1083)
chain: MKGTRAIGSVPERSPAGVDLSLTGLPPPVSRRPGSAATTKPIVRSVSVVTGSEQKRKVLEATGPGGSQAINNLRRSNSTTQVSQPRSGSPRPTEPTDFLMLFEGSPSGKKRPASLSTAPSEKGATWNVLDDQPRGFTLPSNARSSSALDSPAGPRRKECTVALAPNFTANNRSNKGAVGNCVTTMVHNRYTPSERAPPLKSSNQTAPSLNNIIKAATCEGSESSGFGKLPKNVSSATHSARNNTGGSTGLPRRKEVTEEEAERFIHQVNQATVTIQRWYRHQVQRRGAGAARLEHLLQAKREEQRQRSGEGTLLDLHQQKEAARRKAREEKARQARRAAIQELQQKRALRAQKASTAERGPPENPRETRVPGMRQPAQELSPTPGGTAHQALKANNTGGGLPAAGPGDRCLPTSDSSPEPQQPPEDRTQDVLAQDAAGDNLEMMAPSRGSAKSRGPLEELLHTLQLLEKEPDVLPRPRTHHRGRYAWASEVTTEDDASSLTADNLEKFGKLSAFPEPPEDGTLLSEAKLQSIMSFLDEMEKSGQDQLDSQQEGWVPEAGPGPLELGSEVSTSVMRLKLEVEEKKQAMLLLQRALAQQRDLTARRVKETEKALSRQLQRQREHYEATIQRHLAFIDQLIEDKKVLSEKCEAVVAELKQEDQRCTERVAQAQAQHELEIKKLKELMSATEKARREKWISEKTKKIKEVTVRGLEPEIQKLIARHKQEVRRLKSLHEAELLQSDERASQRCLRQAEELREQLEREKEALGQQERERARQRFQQHLEQEQWALQQQRQRLYSEVAEERERLGQQAARQRAELEELRQQLEESSSALTRALRAEFEKGREEQERRHQMELNTLKQQLELERQAWEAGRTRKEEAWLLNREQELREEIRKGRDKEIELVIHRLEADMALAKEESEKAAESRIKRLRDKYEAELSELEQSERKLQERCSELKGQLGEAEGENLRLQGLVRQKERALEDAQAVNEQLSSERSNLAQVIRQEFEDRLAASEEETRQAKAELATLQARQQLELEEVHRRVKTALARKEEAVSSLRTQHEAAVKRADHLEELLEQHRRPTPSTK
B2: OFD1 (protein, UniProt O75665 1-1012)
chain: MMAQSNMFTVADVLSQDELRKKLYQTFKDRGILDTLKTQLRNQLIHELMHPVLSGELQPRSISVEGSSLLIGASNSLVADHLQRCGYEYSLSVFFPESGLAKEKVFTMQDLLQLIKINPTSSLYKSLVSGSDKENQKGFLMHFLKELAEYHQAKESCNMETQTSSTFNRDSLAEKLQLIDDQFADAYPQRIKFESLEIKLNEYKREIEEQLRAEMCQKLKFFKDTEIAKIKMEAKKKYEKELTMFQNDFEKACQAKSEALVLREKSTLERIHKHQEIETKEIYAQRQLLLKDMDLLRGREAELKQRVEAFELNQKLQEEKHKSITEALRRQEQNIKSFEETYDRKLKNELLKYQLELKDDYIIRTNRLIEDERKNKEKAVHLQEELIAINSKKEELNQSVNRVKELELELESVKAQSLAITKQNHMLNEKVKEMSDYSLLKEEKLELLAQNKLLKQQLEESRNENLRLLNRLAQPAPELAVFQKELRKAEKAIVVEHEEFESCRQALHKQLQDEIEHSAQLKAQILGYKASVKSLTTQVADLKLQLKQTQTALENEVYCNPKQSVIDRSVNGLINGNVVPCNGEISGDFLNNPFKQENVLARMVASRITNYPTAWVEGSSPDSDLEFVANTKARVKELQQEAERLEKAFRSYHRRVIKNSAKSPLAAKSPPSLHLLEAFKNITSSSPERHIFGEDRVVSEQPQVGTLEERNDVVEALTGSAASRLRGGTSSRRLSSTPLPKAKRSLESEMYLEGLGRSHIASPSPCPDRMPLPSPTESRHSLSIPPVSSPPEQKVGLYRRQTELQDKSEFSDVDKLAFKDNEEFESSFESAGNMPRQLEMGGLSPAGDMSHVDAAAAAVPLSYQHPSVDQKQIEEQKEEEKIREQQVKERRQREERRQSNLQEVLERERRELEKLYQERKMIEESLKIKIKKELEMENELEMSNQEIKDKSAHSENPLEKYMKIIQQEQDQESADKSSKKMVQEGSLVDTLQSSDKVESLTGFSHEELDDSW
B3: CEP85 (protein, UniProt Q6P2H3 1-762)
chain: MAMQEKYPTEGISHVTSPSSDVIQKGSSLGTEWQTPVISEPFRSRFSRCSSVADSGDTAIGTSCSDIAEDFCSSSGSPPFQPIKSHVTIPTAHVMPSTLGTSPAKPNSTPVGPSSSKLPLSGLAESVGMTRNGDLGAMKHSPGLSRDLMYFSGATGENGIEQSWFPAVGHERQEEARKFDIPSMESTLNQSAMMETLYSDPHHRVRFHNPRTSTSKELYRVLPEAKKAPGSGAVFERNGPHSNSSGVLPLGLQPAPGLSKPLPSQVWQPSPDTWHPREQSCELSTCRQQLELIRLQMEQMQLQNGAICHHPAAFGPSLPILEPAQWISILNSNEHLLKEKELLIDKQRKHISQLEQKVRESELQVHSALLGRPAPFGDVCLLRLQELQRENTFLRAQFAQKTEALSREKIDLEKKLSASEVEVQLIRESLKVALQKHSEEVKKQEERVKGRDKHINNLKKKCQKESEQNREKQQRIETLERYLADLPTLEDHQKQSQQLKDSELKSTELQEKVTELESLLEETQAICREKEIQLESLRQREAEFSSAGHSLQDKQSVEETSGEGPEVEMESWQKRYDSLQKIVEKQQQKMDQLRSQVQSLEQEVAQEEGTSQALREEAQRRDSALQQLRTAVKELSVQNQDLIEKNLTLQEHLRQAQPGSPPSPDTAQLALELHQELASCLQDLQAVCSIVTQRAQGHDPNLSLLLGIHSAQHPETQLDLQKPDVIKRKLEEVQQLRRDIEDLRTTMSDRYAQDMGENCVTQ
B4: CEP128 (protein, UniProt Q6ZU80 1-1094)
chain: MAESSSESDHFRCRDRLSPWAARSTHRGTRSLPTVEVTEKVNTITSTLQDTSRNLRQVDQMLGRYREYSNGQAGAIEHLKESLEQSIDQLRSQRLLRNSGGRSISVTSLSASDLDGGTGSELHHFPPTSPLKDYGDPQGIKRMRSRTGVRFVQETDDMTQLHGFHQSLRDLSSEQIRLGDDFNRELSRRSRSDAETKRALEELTEKLNEAQKQEVVSDRVERRLQELEREMRTERELVERRQDQLGLMSLQLQEALKKQEAKADEHEGAIKNKLRQTETEKNQLEQELELSRRLLNQSEGSRETLLHQVEELRTQLTKAEGDRKGLQHQVSQISKQQSNYQDEQGEDWRFRRGVEREKQDLEKQMSDLRVQLNFSAMASELEEVKRCMERKDKEKAHLASQVENLTRELENGEKQQLQMLDRLKEIQNHFDTCEAERKHADLQISELTRHAEDATKQAERYLSELQQSEALKEEAEKRREDLKLKAQESIRQWKLKHKKLERALEKQSETVDELTGKNNQILKEKDELKTQLYAALQQIENLRKELNDVLTKRALQEEELHSKEEKLRDIKSHQADLELEVKNSLDTIHRLESELKKQSKIQSQMKVEKAHLEEEIAELKKSQAQDKAKLLEMQESIKDLSAIRADLANKLAEEERAKKAVLKDLSDLTAQAKSRDEETATIITQLKLERDVHQRELKDLTSSLQSVKTKHEQNIQELMKHFKKEKSEAENHIRTLKAESLEEKNMAKIHRGQLEKLKSQCDRLTEELTQNENENKKLKLKYQCLKDQLEEREKHISIEEEHLRRMEEARLQLKDQLLCLETEQESILGVIGKEIDAACKTFSKDSVEKLKVFSSGPDIHYDPHRWLAESKTKLQWLCEELKERENREKNLRHQLMLCRQQLRNLTENKESELQCLFQQIERQEQLLDEIHREKRDLLEETQRKDEEMGSLQDRVIALETSTQVALDHLESVPEKLSLLEDFKDFRDSCSSSERTDGRYSKYRVRRNSLQHHQDDTKYRTKSFKGDRTFLEGSHTRGLDHSSSWQDHSRFLSSPRFSYVNSFTKRTVAPDSASNKEDATMNGTSSQPKKEEYGS
B5: CEP55 (protein, UniProt Q53EZ4 1-464)
chain: MSSRSTKDLIKSKWGSKPSNSKSETTLEKLKGEIAHLKTSVDEITSGKGKLTDKERHRLLEKIRVLEAEKEKNAYQLTEKDKEIQRLRDQLKARYSTTTLLEQLEETTREGERREQVLKALSEEKDVLKQQLSAATSRIAELESKTNTLRLSQTVAPNCFNSSINNIHEMEIQLKDALEKNQQWLVYDQQREVYVKGLLAKIFELEKKTETAAHSLPQQTKKPESEGYLQEEKQKCYNDLLASAKKDLEVERQTITQLSFELSEFRRKYEETQKEVHNLNQLLYSQRRADVQHLEDDRHKTEKIQKLREENDIARGKLEEEKKRSEELLSQVQFLYTSLLKQQEEQTRVALLEQQMQACTLDFENEKLDRQHVQHQLHVILKELRKARNQITQLESLKQLHEFAITEPLVTFQGETENREKVAASPKSPTAALNESLVECPKCNIQYPATEHRDLLVHVEYCSK

Molecular target: V5-BirA*-SLAIN2
Experiment: proximity labelling; BioID: HEK293T stably expressing V5-BirA*-SLAIN2, 50 uM biotin for 18 h, denaturing lysis (500 mM NaCl, 0.4% SDS, 2% Triton X-100), streptavidin agarose pull-down, on-bead digestion and mass spectrometry; three replicates; V5-BirA* alone as control (seven replicates)

binding | Binder
binds | B1
binds | B2
binds | B3
binds | B4
binds | B5
